# Data reported in the supplement of paper PMC7024190.
# Where a name gives a salt, the structure may show the parent alone. Some of the results follow. Repeats in this data set agree poorly, so a single value says little.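 A first-round screen of about ten thousand compounds sought those raising reporter output, using human embryonic kidney cells briefly transfected with a plasmid carrying a Renilla luciferase gene driven by the HSV-TK promoter.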
# Tested on: HEK 293FT
# Test: log relative Renilla luciferase luminescence (reporter expression vs reference, reference not stated) (log (base not stated)); higher = higher recombinant reporter expression
# Conditions: 10 µM; time after transfection 48 h
row,Compound,log
1,CC(C)c1ccc(C(=O)c2cccs2)c(SCCCCCCCCN(C)C)n1,0.182
2,COc1ccc(S(=O)(=O)N2c3ccc(Cl)cc3[C@](O)(c3ccccc3Cl)[C@@H]2C(=O)N2CCC[C@H]2C(N)=O)cc1OC,-0.151
3,O=C(NCCNCC(O)COc1ccc(O)cc1)N1CCOCC1 (stereo not given) [Xamoterol hemifumarate],0.026
4,NC(C(=O)O)c1ccc(C(=O)O)c(C(=O)O)c1 (stereo not given),-0.076
5,Cc1cc(C)c(N(Cc2ccccc2)S(=O)(=O)c2ccc(OCCNC(=O)c3cc4ccccc4o3)cc2)c(C(=O)NO)c1,-0.153
6,COC(=O)[C@H]1[C@H]2C[C@@H]3c4[nH]c5cc(OC)ccc5c4CCN3C[C@H]2C[C@@H](OC(=O)c2cc(OC)c(OC)c(OC)c2)[C@@H]1OC [Reserpine],-0.0748
7,COc1ccc2cc([C@H](C)C(=O)O)ccc2c1 [Naproxen sodium],-0.0739
8,O=C(/C=C/c1ccccc1)NC(NC(=S)Nc1cccc2cccnc12)C(Cl)(Cl)Cl (stereo not given) [Salubrinal],0.0781
9,COC(=O)[C@H]1[C@H]2C[C@H]3c4[nH]c5ccccc5c4CCN3C[C@H]2CC[C@@H]1O [Rauwolscine hydrochloride],-0.16
10,CCN(CC)CCCCC1CCN(CC(=O)N2c3ccccc3C(=O)Nc3cccnc32)CC1,-0.203
11,Cc1nc2sccn2c(=O)c1CCN1CCC(=C(c2ccc(F)cc2)c2ccc(F)cc2)CC1 [Ritanserin],0.169
12,Cc1cc2nc3c(=O)[nH]c(=O)nc-3n(C)c2cc1C=O,-0.108
13,NC(=O)N1C(=O)/C(=C(\O)c2cccs2)c2cc(Cl)ccc21 [Tenidap],0.0285
14,CCCCCCCCCCCCCCCC(=O)C(F)(F)F,-0.051
15,NS(=O)(=O)c1cccc2c1c([N+](=O)[O-])cc1nc(O)c(O)nc12 [NBQX disodium salt],0.00743
16,COC(=O)c1c(C)[nH]c(C)c1C(=O)c1ccccc1Cc1ccccc1,0.0637
17,c1ccc(C(NCCNC(c2ccccc2)c2ccccc2)c2ccccc2)cc1 [AMN 082 dihydrochloride],-0.177
18,Cn1cnc2c(NCc3ccccc3)nc(NCCO)nc21 [Olomoucine],-0.162
19,Cc1ccc(/C(=C\CN2CCCC2)c2ccccn2)cc1 [trans-Triprolidine hydrochloride],0.00954
20,CCCC1O[C@@H]2C[C@H]3[C@@H]4CCC5=CC(=O)C=C[C@]5(C)[C@H]4[C@@H](O)C[C@]3(C)[C@]2(C(=O)CO)O1 (stereo not given in full) [Budesonide],-0.0275

row,Compound,log
1,CC(=O)N1CCN(C)CC1 [1-Acetyl-4-methylpiperazine hydrochloride],0.00213
2,c1ccc(CN(CC2=NCCN2)c2ccccc2)cc1 [Antazoline hydrochloride],-0.00432
3,Nc1ncnc2c1ncn2[C@@H]1O[C@H](CO)C[C@H]1O [Cordycepin],-0.151
4,O=C(Nc1ccc(C(F)(F)F)cn1)N1CCN(c2ncccc2C(F)(F)F)CC1,-0.0637
5,COc1cc(C[C@H]2C(=O)OC[C@@H]2Cc2ccc(OC)c(OC)c2)ccc1O [Arctigenin],-1.2
6,CC(C)Oc1cccc(-n2c(CCc3c[nH]c4ccc(Br)cc34)nc3ccccc3c2=O)c1,0.0544
7,COc1ccc(-c2oc3cc(OC)ccc3c2C(=O)c2ccc(C#N)cc2)cc1,0.128
8,O=C(OCCN1CCCCC1)c1c[nH]c2ccccc12,0.0219
9,Oc1cc2c(c(Cl)c1O)CCNCC2c1ccccc1 (stereo not given),0.0583
10,CC(C)(C)c1ccc(/C=C/C(=O)Nc2ccc3c(c2)OCCO3)cc1,-0.135
11,N=C(N)N/N=C/c1c(Cl)cccc1Cl [Guanabenz acetate],-0.236
12,CC(=O)N[C@@H](Cc1c[nH]c2ccccc12)C(=O)OCc1cc(C(F)(F)F)cc(C(F)(F)F)c1,0.0932
13,O=C1C(Cl)=C(NCCN2CCOCC2)C(=O)c2ncccc21,0.0512
14,CC(C)[C@H](CO)Nc1nc(Nc2ccc(C(=O)O)c(Cl)c2)c2ncn(C(C)C)c2n1 [Purvalanol B],0.0127
15,Nc1ncnc2n[nH]c(Nc3ccc(F)cc3)c12,-0.0876
16,Cl/C(=C\n1cncn1)c1ccc(Cl)cc1Cl [Loreclezole hydrochloride],-0.0404
17,CCCCCCCCCCCC1=C(O)C(=O)C=C(O)C1=O [Embelin],-0.0903
18,Nc1nc(NCC2CCC(CNS(=O)(=O)c3cccc4ccccc34)CC2)nc2ccccc12 (stereo not given),0.33
19,Fc1ccc(Cl)cc1-c1nc(Nc2ccncc2)c2nccnc2n1,-0.19
20,Oc1ccc(Nc2nc(-c3ccc(Cl)cc3)cs2)cc1,0.0168

# Single entries from the results shown:
# Entry for `O=C1C(Cl)=C(NCCN2CCOCC2)C(=O)c2ncccc21` under log: 0.0512
# Entry for `Nc1nc(NCC2CCC(CNS(=O)(=O)c3cccc4ccccc34)CC2)nc2ccccc12` (stereo not given) under log: 0.33
